In patent US20240350460A1, “APPLICATION OF HYDRAZIDE COMPOUND IN TUMOR TREATMENT” (NANJING SHIJIANG MEDICINE TECHNOLOGY CO., LTD, priority 2021, published 2024):

System: 786-O
Assay: Cell viability (Promega CellTiter-Glo), inhibitory effect on tumor cell line
Assay type: cell-based
Conditions: Homo sapiens, 786-0, clear cell renal cell adenocarcinoma cell, insensitive group, 3-4 days of culture, n=3
Experimental: The inhibitory effect of nifuroxazide or furazolidone on various tumor cell lines was detected using cell activity detection reagent. Cell viability was detected using the Promega CellTiter-Glo kit, cell viability was determined by directly measuring intracellular ATP content. […] Each tumor cell was cultured separately in relevant medium (+p/s), and was incubated for 3 h, then the gradient diluted nifuroxazide or furazolidone was added. […] The name, source and culture conditions of each tumor cell line were as follows: Cell line 786-O (ATCC, No. CRL-1932) was cultured in 10% fetal bovine serum-containing RPMI1640 medium (+P/S).

## O=C1OCCN1/N=C/c1ccc([N+](=O)[O-])o1 [Furazolidone, furazolidone]
  IC50: > 50 µM
